Test results from US20150351401A1 (priority 2012, published 2015).
Like-named read-outs stand apart in the source and are kept apart here. Some of these results come from one statement about several compounds together.

Tested on: Pyricularia oryzae
Type: cell-based

SMILES | growth (relative growth in % of the pathogen) (31 ppm) [%] | growth (relative growth in % of the pathogen) [%]
OC(Cc1ccc(-c2ccc(Cl)cc2)cc1Cl)(Cn1cncn1)C1(Cl)CC1 (centres unmarked) [I-3, 1-[2-chloro-4-(4-chlorophenyl)phenyl]-2-(1-chlorocyclopropyl)-3-(1,2,4-triazol-1-yl)propan-2-ol] | ≤ 7 | –
OC(Cc1ccc(Oc2ccc(Cl)cc2)cc1Cl)(Cn1cncn1)C1(Cl)CC1 (centres unmarked) [I-4] | – | ≤ 7
OC(Cc1ccc(Oc2ccc(Cl)cc2)cc1Cl)(Cn1ncnc1S)C1(Cl)CC1 (centres unmarked) [I-5] | – | ≤ 7
OC(Cc1ccc(-c2ccc(Cl)cc2)cc1Cl)(Cn1ncnc1S)C1(Cl)CC1 (centres unmarked) [I-6] | ≤ 7 | –
OC(Cc1ccc(Oc2ccc(Cl)cc2)cc1Cl)(Cn1cncn1)C1CC1 (centres unmarked) [I-7, 1-[2-Chloro-4-(4-chlorophenoxyl)phenyl]-2-cyclopropyl-3-(1,2,4-triazol-1-yl)propan-2-ol] | ≤ 7 | –
